Measurements: the supplement of paper PMC3334620
In all, about 33,000 sequences were measured (“E-score (-0.5 to 0.5)”: median about -0.0059, highest 2% from about 0.26 on). The list shows a part of the results.

target: T1, Cin5 (UniProt P40917); experiment: PBM E-score (8-mer binding enrichment) (E-score (-0.5 to 0.5)); higher = stronger / more preferred TF binding; settings: protein concentration: 100 nM; construct: GST-full length
T1 sequence: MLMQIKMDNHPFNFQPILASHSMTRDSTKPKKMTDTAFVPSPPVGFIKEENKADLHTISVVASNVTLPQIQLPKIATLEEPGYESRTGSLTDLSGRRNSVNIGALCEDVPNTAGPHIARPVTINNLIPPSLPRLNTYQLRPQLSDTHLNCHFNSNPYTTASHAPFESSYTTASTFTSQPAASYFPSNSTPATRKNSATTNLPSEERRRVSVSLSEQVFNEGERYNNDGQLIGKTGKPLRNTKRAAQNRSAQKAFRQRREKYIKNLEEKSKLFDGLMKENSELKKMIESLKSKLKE
In short: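 Full-length yeast transcription factors or their DNA-binding domains, GST-tagged and expressed with PURExpress, were applied at about 100-200 nM to universal all-10-mer Agilent arrays. These arrays had been made double-stranded by primer extension on fresh or once-stripped slides. Detection used fluorescent anti-GST, normalisation used masliner, and E-scores for ungapped eight-base words pooled with reverse complements came from the Universal PBM Analysis Suite.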

Sequence | PBM E-score
GCTGGAAA | -0.0311
GAGGCATA | -0.00938
CATTTCAA | 0.178
TGCCTGAA | -0.173
AATCTCCG | 0.0667
AGGAATAG | 0.0234
ACTCACAG | 0.0289
CTCCGATC | -0.161
CTCGGCCC | -0.235
ATCGCCTC | 0.047
ATAAACCA | 0.00546
AAAGTATC | 0.115
ACTGCCGG | 0.0623
AGTGCTTC | -0.121
GGGATGAA | -0.0257
AAAACTTC | -0.0941
GAAGGTGA | -0.0364
ACTACTGA | -0.0575
AGCATTAC | 0.0249
CTCGGACA | -0.0297
GCATACCC | 0.1
CTCTGCCA | -0.187
CAAACGTC | -0.147
CCTAACTC | -0.0248
GCTCGTTA | -0.0654

Sequence | PBM E-score
ATAACAAC | 0.2
ATATTAAC | 0.28
CGTAGGCA | -0.195
AATGGCTC | 0.0552
CCACAATA | 0.00199
CTAATTGA | 0.0779
GCAATCGC | -0.104
ATCTGATA | -0.00845
ATTGTCTA | 0.273
GCGGTAAA | 0.0216
ACCTCCCC | -0.144
CCCGCCCG | 0.0583
ACGCTCCA | -0.0796
ATACCTCC | -0.237
AACATACC | 0.0214
TCTCCGAA | -0.105
AGATTGAA | 0.0552
TCATACCA | 0.167
ACAGGATA | -0.0136
CGCGGTAG | -0.00033
GCTACAGA | -0.164
CCTGACCA | 0.0699
CAGACTTA | -0.169
ATCTCAAA | 0.166
GCGACAAA | 0.0727

Sequence | PBM E-score
ACACTGAA | 0.2
TGTGGCAA | -0.0204
GACTCCAA | -0.226
CAAGACTA | -0.0264
CATGGGAG | -0.0247
GATATCAA | 0.0641
GAACTGCA | 0.0151
CGGGAACA | 0.123
CCAAGCTA | -0.133
AAATAGAG | -0.0761
GACGCCAA | -0.219
AACGACAG | -0.0436
GAAGAGTA | 0.0291
CCCAGAAA | 0.0725
GGGCAAAC | 0.00032
TAGCCGGA | 0.0114
CTCGGCAC | -0.0879
ACGTGTGG | -0.161
CGTTCTGC | 0.0332
AAGGCTAC | -0.135
ACCAAGCC | -0.172
AGTTGTGG | 0.232
AAACGAGC | -0.0828
ACACGTCT | -0.177
CTTGTACA | -0.112

Sequence | PBM E-score
ATTCACCA | -0.0335
CTACACCA | -0.00077
CCAACATC | 0.109
AAACCGCT | 0.0176
ACATGGTC | 0.0743
CCTGAGCC | -0.193
AGTTTAAT | 0.0382
TCTTGGCA | 0.0567
AATCTAAG | 0.0243
CATCCGTA | 0.191
CCGCCAAG | -0.175
CACACGTG | -0.111
GAGCACCA | -0.128
ACAAGACG | -0.0511
CGCCTGGC | -0.199
AGGGGTGG | 0.00209
GATCAAGC | -0.0258
CAAGACTG | -0.0812
CAATAGTG | 0.0181
GGTGGAGA | -0.256
CAGATTGA | 0.0594
CTGGTGAC | -0.13
GGAAAGCA | -0.112
AGAAACTG | -0.0909
CTCCTGCC | -0.108

Sequence | PBM E-score
GGCAATAA | 0.155
CGACTTAA | -0.137
CGAACTGC | 0.0147
TGTCGAAA | -0.0736
AGTAAGGG | 0.0482
ATCTAGTG | 0.0477
ATTGGAAG | 0.0337
GCACAATA | -0.0962
ATGTATCC | 0.0758
GATGCGAA | 0.144
GGCTCGCA | 0.0063
ACCCTGCC | -0.173
ATACCATG | 0.0359
ACAAATCT | 0.00999
AGGAATAA | 0.109
CCGATTTA | 0.0837
ACCTAAGA | 0.131
AGGATGGC | -0.0711
ACACTCCG | 0.0345
CAGAGTGA | 0.111
AACTCGAT | 0.15
AAGACCAC | -0.205
CTCATTGA | -0.207
CAGTGTGC | -0.163
ATAAGATA | 0.223

Sequence | PBM E-score
AGTATAAG | 0.239
CGACAGTC | -0.299
CGAGAGTA | 0.115
AGCAGCTG | -0.0182
AAACCGTT | -0.0552
GTAGGCGA | -0.0604
GTAGCCAA | -0.0505
CGCTGGCC | -0.393
CCAGAGAG | -0.174
AATCACCG | 0.0462
TGCCGAAA | -0.155
CCGCTATA | 0.0976
AATAGGAA | 0.15
AGGCTATC | -0.0571
AATTCGAT | 0.158
GTACTCAA | 0.101
ACGTGGGA | -0.162
AGAGGTTA | 0.0261
ACAACTCA | 0.153
CCAGACGG | -0.29
CGATGCCC | -0.287
CGGTGCGA | -0.0828
AATTGGAA | 0.127
ATTGGAGA | 0.173
CCCCTGCC | -0.0676

Sequence | PBM E-score
AACAGGGT | -0.118
TCACATGA | -0.107
GAATACGA | 0.101
GGGGACAA | -0.116
AACTACTG | 0.0741
CACGAGTA | 0.128
ATAGACAA | 0.211
AGTTGCGC | 0.0668
ATGGATAG | 0.0793
GGGGGTAA | -0.371
AAGTTAGT | -0.0212
GGGGGGGA | -0.47
AAGTAACG | -0.0154
ACAGGGTA | 0.0496
GATGAGGA | -0.0911
GGATTGAA | 0.104
ATTCGAGC | -0.127
TATAGACA | 0.147
GTATGAAA | 0.139
AGGCGTTC | -0.281
CGCTGCCA | -0.143
CCACGATC | 0.131
